This is one part of the list. Residues, ends and D or L forms follow the SMILES beside them. *: point of attachment. Cbz = O=C(OCc1ccccc1)*

Sequences of proteins named here, by UniProt entry; tags and fusion partners are left off. A change or cut given only in a name is not applied to a line headed by its entry.
UniProt P42224: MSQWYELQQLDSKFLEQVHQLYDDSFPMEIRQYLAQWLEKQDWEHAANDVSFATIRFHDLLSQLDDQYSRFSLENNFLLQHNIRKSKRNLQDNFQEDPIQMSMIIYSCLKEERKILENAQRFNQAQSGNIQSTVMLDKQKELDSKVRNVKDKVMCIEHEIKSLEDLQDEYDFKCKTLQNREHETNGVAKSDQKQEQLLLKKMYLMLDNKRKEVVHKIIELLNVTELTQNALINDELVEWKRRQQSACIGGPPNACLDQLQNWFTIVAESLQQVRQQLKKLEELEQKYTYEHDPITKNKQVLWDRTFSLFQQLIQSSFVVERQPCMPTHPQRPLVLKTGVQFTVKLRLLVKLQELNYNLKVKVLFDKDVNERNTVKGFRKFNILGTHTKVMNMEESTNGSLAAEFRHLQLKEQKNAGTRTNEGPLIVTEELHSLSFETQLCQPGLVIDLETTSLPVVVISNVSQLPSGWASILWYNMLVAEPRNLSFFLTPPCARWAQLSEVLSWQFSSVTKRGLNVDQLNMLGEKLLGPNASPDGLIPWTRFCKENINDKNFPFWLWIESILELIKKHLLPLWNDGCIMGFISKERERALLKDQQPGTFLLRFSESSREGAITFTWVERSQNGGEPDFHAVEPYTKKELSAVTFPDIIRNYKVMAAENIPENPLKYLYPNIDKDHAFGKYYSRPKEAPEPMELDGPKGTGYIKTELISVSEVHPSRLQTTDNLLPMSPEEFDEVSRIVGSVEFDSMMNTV
UniProt P09486: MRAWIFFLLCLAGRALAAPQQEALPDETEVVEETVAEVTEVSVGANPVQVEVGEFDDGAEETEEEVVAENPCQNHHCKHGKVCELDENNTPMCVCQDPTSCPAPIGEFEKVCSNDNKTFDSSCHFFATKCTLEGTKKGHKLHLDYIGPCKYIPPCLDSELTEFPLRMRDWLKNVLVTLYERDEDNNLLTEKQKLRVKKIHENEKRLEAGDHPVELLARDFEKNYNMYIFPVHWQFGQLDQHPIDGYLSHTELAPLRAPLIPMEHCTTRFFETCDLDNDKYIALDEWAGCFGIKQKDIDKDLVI
UniProt Q04837: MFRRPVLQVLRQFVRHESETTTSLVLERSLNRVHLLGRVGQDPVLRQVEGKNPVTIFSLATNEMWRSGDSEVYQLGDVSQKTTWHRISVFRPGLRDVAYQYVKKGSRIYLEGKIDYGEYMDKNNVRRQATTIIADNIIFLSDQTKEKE
UniProt P37108: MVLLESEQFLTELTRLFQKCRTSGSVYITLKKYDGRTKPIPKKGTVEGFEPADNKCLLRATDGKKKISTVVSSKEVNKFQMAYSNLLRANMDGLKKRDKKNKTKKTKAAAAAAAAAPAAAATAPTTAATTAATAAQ
UniProt Q9NRC1: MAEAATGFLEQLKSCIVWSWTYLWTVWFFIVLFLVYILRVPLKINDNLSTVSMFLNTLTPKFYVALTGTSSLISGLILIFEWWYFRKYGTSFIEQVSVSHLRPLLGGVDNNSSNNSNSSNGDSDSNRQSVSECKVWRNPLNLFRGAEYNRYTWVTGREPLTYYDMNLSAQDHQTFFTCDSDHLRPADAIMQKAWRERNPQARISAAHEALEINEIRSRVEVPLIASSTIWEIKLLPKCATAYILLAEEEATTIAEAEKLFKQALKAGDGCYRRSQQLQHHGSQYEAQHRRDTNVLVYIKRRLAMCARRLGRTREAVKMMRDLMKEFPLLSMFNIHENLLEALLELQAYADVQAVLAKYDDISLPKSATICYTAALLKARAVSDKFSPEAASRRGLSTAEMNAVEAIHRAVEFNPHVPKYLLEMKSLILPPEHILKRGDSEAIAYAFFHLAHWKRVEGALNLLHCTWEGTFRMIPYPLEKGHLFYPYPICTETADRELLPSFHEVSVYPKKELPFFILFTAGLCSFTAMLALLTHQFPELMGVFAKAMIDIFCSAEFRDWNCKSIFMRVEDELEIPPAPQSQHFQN
UniProt O95630, whole entry, looked up: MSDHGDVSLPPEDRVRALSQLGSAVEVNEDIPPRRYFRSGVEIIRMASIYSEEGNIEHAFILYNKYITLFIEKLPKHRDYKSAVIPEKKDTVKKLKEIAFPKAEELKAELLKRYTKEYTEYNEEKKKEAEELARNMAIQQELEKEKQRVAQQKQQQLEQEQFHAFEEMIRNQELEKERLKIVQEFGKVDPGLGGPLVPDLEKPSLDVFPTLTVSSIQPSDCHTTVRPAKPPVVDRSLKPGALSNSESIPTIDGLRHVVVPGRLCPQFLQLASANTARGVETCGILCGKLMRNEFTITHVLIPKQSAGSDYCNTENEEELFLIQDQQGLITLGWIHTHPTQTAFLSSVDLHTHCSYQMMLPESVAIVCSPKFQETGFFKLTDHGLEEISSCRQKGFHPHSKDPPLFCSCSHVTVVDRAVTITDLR
UniProt O15020, whole entry, looked up: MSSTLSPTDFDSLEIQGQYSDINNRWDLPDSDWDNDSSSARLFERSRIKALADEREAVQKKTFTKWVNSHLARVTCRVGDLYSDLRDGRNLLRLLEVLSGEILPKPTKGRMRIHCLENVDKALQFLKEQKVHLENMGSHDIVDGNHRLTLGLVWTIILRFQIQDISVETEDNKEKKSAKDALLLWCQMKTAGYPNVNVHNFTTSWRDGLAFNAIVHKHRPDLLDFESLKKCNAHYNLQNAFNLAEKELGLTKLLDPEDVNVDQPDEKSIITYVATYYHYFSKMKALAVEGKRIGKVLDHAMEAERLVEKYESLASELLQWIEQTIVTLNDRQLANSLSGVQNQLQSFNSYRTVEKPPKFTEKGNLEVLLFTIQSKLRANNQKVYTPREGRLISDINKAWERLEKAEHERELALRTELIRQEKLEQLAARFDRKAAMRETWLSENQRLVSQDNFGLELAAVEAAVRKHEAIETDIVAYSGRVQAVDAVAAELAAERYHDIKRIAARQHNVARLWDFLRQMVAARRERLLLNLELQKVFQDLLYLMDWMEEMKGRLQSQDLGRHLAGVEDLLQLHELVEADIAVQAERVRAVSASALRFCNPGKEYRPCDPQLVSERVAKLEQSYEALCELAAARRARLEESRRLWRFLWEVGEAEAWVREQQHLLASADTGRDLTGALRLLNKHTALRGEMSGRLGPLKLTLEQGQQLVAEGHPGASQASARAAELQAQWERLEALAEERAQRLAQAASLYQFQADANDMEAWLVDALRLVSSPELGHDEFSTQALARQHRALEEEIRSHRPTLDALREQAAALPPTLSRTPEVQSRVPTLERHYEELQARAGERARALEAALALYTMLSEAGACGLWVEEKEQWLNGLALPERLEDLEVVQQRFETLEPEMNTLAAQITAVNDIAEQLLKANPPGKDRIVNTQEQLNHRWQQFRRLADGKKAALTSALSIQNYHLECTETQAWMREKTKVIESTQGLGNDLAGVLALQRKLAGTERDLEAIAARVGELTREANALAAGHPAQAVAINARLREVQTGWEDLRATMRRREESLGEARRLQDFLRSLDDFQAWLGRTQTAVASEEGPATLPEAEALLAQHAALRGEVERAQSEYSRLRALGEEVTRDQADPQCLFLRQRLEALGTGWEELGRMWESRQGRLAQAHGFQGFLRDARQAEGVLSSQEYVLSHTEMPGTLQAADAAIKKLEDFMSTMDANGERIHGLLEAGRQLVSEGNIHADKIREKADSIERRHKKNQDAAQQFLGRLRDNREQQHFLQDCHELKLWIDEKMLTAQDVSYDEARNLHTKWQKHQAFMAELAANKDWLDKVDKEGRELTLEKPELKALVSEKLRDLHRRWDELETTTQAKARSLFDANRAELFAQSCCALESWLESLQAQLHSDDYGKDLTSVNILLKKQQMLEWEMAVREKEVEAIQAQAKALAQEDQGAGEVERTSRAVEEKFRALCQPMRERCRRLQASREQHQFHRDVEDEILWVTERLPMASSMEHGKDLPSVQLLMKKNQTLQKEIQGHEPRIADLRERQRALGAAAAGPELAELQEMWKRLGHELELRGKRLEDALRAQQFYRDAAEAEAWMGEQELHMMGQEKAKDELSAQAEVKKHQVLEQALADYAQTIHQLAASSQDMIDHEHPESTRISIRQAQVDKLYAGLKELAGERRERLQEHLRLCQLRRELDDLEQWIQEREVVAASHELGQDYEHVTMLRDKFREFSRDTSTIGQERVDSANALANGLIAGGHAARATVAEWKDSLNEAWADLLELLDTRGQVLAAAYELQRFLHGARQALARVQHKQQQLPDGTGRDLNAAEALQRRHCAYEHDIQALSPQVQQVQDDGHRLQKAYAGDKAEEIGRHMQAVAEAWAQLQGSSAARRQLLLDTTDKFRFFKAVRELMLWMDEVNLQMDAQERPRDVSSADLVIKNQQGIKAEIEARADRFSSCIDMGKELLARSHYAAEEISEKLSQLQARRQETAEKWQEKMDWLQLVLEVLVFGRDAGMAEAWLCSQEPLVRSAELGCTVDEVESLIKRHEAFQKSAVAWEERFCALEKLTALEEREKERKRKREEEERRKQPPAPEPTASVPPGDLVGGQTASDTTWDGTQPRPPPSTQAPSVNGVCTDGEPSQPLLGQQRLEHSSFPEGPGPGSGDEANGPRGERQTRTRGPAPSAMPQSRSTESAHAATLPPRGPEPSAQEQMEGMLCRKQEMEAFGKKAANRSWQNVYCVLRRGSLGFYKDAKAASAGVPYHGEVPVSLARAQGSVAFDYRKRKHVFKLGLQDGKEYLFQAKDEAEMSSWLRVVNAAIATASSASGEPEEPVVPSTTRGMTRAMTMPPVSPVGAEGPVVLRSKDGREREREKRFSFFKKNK
UniProt Q9HBM1: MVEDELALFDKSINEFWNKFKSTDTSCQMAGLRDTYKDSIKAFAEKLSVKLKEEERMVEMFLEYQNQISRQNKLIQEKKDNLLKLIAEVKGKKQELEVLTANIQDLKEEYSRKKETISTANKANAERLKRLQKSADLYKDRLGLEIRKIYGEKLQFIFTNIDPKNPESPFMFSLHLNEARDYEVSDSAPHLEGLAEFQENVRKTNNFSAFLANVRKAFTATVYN
UniProt Q8WVM7: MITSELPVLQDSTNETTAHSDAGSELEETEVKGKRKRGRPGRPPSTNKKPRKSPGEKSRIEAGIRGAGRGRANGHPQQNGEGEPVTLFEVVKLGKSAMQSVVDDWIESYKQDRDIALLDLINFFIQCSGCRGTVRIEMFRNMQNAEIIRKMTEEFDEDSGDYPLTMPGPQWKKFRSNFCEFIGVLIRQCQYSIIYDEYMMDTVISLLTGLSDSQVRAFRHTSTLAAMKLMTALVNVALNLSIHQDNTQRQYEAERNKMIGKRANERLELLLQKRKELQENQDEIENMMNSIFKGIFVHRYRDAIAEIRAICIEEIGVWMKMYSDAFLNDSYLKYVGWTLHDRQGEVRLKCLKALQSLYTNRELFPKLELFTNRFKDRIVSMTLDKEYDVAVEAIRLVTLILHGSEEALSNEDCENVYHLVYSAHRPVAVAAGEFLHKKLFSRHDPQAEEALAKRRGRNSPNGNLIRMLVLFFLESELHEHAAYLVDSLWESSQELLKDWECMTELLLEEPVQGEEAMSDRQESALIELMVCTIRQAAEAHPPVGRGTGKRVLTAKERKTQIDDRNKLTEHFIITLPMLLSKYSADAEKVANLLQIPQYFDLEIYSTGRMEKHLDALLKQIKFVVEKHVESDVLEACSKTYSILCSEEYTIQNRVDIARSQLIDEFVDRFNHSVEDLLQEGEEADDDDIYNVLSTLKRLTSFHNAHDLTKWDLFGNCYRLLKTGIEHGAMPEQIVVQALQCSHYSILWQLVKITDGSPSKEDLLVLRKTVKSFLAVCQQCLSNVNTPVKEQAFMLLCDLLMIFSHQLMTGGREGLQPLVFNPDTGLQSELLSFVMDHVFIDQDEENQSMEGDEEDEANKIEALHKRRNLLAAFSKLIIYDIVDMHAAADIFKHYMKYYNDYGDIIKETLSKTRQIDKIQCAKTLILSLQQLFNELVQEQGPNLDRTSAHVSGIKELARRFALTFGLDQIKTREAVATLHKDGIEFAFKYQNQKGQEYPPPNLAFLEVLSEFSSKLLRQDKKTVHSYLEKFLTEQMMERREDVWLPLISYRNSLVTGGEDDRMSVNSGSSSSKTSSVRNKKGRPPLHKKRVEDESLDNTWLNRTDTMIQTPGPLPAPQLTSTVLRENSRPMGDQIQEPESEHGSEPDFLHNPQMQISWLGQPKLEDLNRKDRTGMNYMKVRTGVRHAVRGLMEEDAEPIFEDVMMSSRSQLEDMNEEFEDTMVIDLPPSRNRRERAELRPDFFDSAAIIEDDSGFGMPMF
UniProt Q13242, whole entry, looked up: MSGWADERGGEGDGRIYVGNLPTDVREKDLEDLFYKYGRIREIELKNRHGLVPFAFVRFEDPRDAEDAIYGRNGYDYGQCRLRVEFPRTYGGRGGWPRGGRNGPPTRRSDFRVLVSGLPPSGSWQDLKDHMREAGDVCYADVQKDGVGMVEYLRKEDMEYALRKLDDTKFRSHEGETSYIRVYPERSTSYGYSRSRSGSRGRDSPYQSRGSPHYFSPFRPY

Compound in the first assay: CC(C)(O)CC(=O)NCCn1ccc2ncnc(Nc3ccc(Oc4cccc(C(F)(F)F)c4)c(Cl)c3)c21
The assay can be described thus: log2 fold change, soluble protein after heating vs DMSO (PISA); higher = thermal stabilisation; K562 cells, 10 uM, 30 min; active = over 0.2 and 3.5 SD of the protein, either way, in both replicates (recomputed). In outline: (§1)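 Soluble protein was quantified by TMTpro 16plex LC-MS/MS after channel sums were equalised. It was obtained as the supernatant after 21,000xg for 90 min from pooled aliquots of K562 cells (2×10^6 cells/mL, 10 μM compound, 30 min) heated for 3 min across 48°C-58°C and extracted in PBS with 0.5% NP-40 at 4°C. Thermal stability values are relative to control samples and come from duplicates. They are given as log2 fold changes.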
As to STAT1 (UniProt P42224), the log2 fold change was inactive: 0.032.

For the target SPARC (UniProt P09486), the log2 fold change is inactive: 0.196.

SRPK1 (UniProt Q96SB4): the log2 fold change is inactive: 0.041.

As for SSBP1 (UniProt Q04837), the log2 fold change was inactive: 0.085.

As for SRP14 (UniProt P37108), the log2 fold change was inactive: 0.057.

Regarding ST7 (UniProt Q9NRC1), the log2 fold change is inactive: -0.053.

STAMBP (UniProt O95630): the log2 fold change was inactive: -0.03.

In the case of SPECC1L (UniProt Q69YQ0), the log2 fold change is inactive: -0.124.

Take SPTB isoform 2 (UniProt P11277): the log2 fold change was inactive: 0.038.

With SPTBN2 (UniProt O15020), the log2 fold change is inactive: 0.046.

SRP54 (UniProt P61011): the log2 fold change was inactive: -0.064.

On to SPC25 (UniProt Q9HBM1), for which the log2 fold change was inactive: -0.128.

For SPATA5L1 (UniProt Q9BVQ7), the log2 fold change is inactive: 0.017.

As for STAG1 (UniProt Q8WVM7), the log2 fold change was inactive: -0.038.

Turning to SRSF9 (UniProt Q13242), the log2 fold change is inactive: 0.219.

Compound in the next assay: CC(C)C1=C2N=C(C=C(N2N=C1)NCC3=CC=CC=C3)NCCCCCCN
The assay is described as above. In outline: as §1
On to SRSF5 (UniProt Q13243), for which the log2 fold change is inactive: -0.024.

On to SPRY4 (UniProt Q9C004), for which the log2 fold change was inactive: 0.02.

As for SRRT (UniProt Q9BXP5), the log2 fold change was inactive: -0.375.

SPCS3 (UniProt P61009): the log2 fold change is inactive: 0.031.

Take SPHK1 isoform 2 (UniProt Q9NYA1): the log2 fold change was inactive: 0.09.

On to SPRYD4 (UniProt Q8WW59), for which the log2 fold change was inactive: -0.011.

For ST6GALNAC1 (UniProt Q9NSC7), the log2 fold change is inactive: -0.044.

For the target SRR (UniProt Q9GZT4), the log2 fold change is inactive: -0.014.

On to SPTAN1 isoform 2 (UniProt Q13813), for which the log2 fold change is inactive: 0.005.

With SSR1 (UniProt P43307), the log2 fold change was inactive: -0.033.

In the case of SPRYD7 (UniProt Q5W111), the log2 fold change was inactive: -0.041.

Regarding SPCS1, A0A5F9YFS9, the log2 fold change is inactive: -0.071.

In the case of STAU1 (UniProt O95793), the log2 fold change is inactive: 0.

For SPN (UniProt P16150), the log2 fold change was inactive: 0.192.

As to SPIN1 (UniProt Q9Y657), the log2 fold change is inactive: 0.102.

Turning to SRM (UniProt P19623), the log2 fold change is inactive: -0.136.

As for SQLE (UniProt Q14534), the log2 fold change was inactive: 0.001.

Take STK11 (UniProt Q15831): the log2 fold change was inactive: 0.091.

Take SPTA1 (UniProt P02549): the log2 fold change is inactive: -0.313.

SRA1 (UniProt Q9HD15): the log2 fold change was inactive: 0.039.

In the case of STAM (UniProt Q92783), the log2 fold change is inactive: -0.042.

Consider STAG2 (UniProt Q8N3U4), for which the log2 fold change was inactive: 0.003.

For STIP1 isoform 2 (UniProt P31948), the log2 fold change was inactive: 0.021.

In the case of STAT1 (UniProt P42224), the log2 fold change was inactive: -0.197.

For the target SPARC (UniProt P09486), the log2 fold change was inactive: 0.171.

Consider SRPK1 (UniProt Q96SB4), for which the log2 fold change is inactive: 0.053.

SSBP1 (UniProt Q04837): the log2 fold change is inactive: 0.121.

SRP14 (UniProt P37108): the log2 fold change was inactive: 0.016.

As to ST7 (UniProt Q9NRC1), the log2 fold change was inactive: 0.044.

For STAMBP (UniProt O95630), the log2 fold change is inactive: -0.097.

Regarding SPECC1L (UniProt Q69YQ0), the log2 fold change was inactive: 0.071.

As for SPTB isoform 2 (UniProt P11277), the log2 fold change is inactive: -0.139.

As to SPTBN2 (UniProt O15020), the log2 fold change was inactive: -0.06.

For SRP54 (UniProt P61011), the log2 fold change is inactive: -0.095.

As to SPC25 (UniProt Q9HBM1), the log2 fold change is inactive: -0.183.

In the case of SPATA5L1 (UniProt Q9BVQ7), the log2 fold change is inactive: 0.072.

As for STAG1 (UniProt Q8WVM7), the log2 fold change is inactive: -0.006.

Take SRSF9 (UniProt Q13242): the log2 fold change is inactive: 0.019.

Compound in another assay: CC(C)C[C@@H](C=O)NC(=O)[C@H](CC(C)C)NC(=O)[C@H](CC(C)C)NC(=O)OCc1ccccc1
Described as above. In outline:
as §1
On to SRSF5 (UniProt Q13243), for which the log2 fold change was inactive: 0.122.

With SPRY4 (UniProt Q9C004), the log2 fold change is inactive: 0.056.

For the target SRRT (UniProt Q9BXP5), the log2 fold change was inactive: -0.049.

On to SPCS3 (UniProt P61009), for which the log2 fold change was inactive: 0.

Consider SPHK1 isoform 2 (UniProt Q9NYA1), for which the log2 fold change is inactive: 0.014.

As for SPRYD4 (UniProt Q8WW59), the log2 fold change is inactive: -0.035.

Take ST6GALNAC1 (UniProt Q9NSC7): the log2 fold change is inactive: 0.067.

As for SRR (UniProt Q9GZT4), the log2 fold change is inactive: -0.007.

Consider SPTAN1 isoform 2 (UniProt Q13813), for which the log2 fold change is inactive: -0.02.

As for SSR1 (UniProt P43307), the log2 fold change is inactive: 0.

For SPRYD7 (UniProt Q5W111), the log2 fold change is inactive: -0.025.

Consider SPCS1, A0A5F9YFS9, for which the log2 fold change is inactive: 0.014.

For STAU1 (UniProt O95793), the log2 fold change is inactive: 0.2.

On to SPN (UniProt P16150), for which the log2 fold change is inactive: 0.

Take SPIN1 (UniProt Q9Y657): the log2 fold change was inactive: 0.215.

For the target SRM (UniProt P19623), the log2 fold change was inactive: -0.001.

As for SQLE (UniProt Q14534), the log2 fold change is inactive: 0.105.

For the target STK11 (UniProt Q15831), the log2 fold change is inactive: 0.065.

On to SPTA1 (UniProt P02549), for which the log2 fold change is inactive: 0.171.

For the target SRA1 (UniProt Q9HD15), the log2 fold change was inactive: 0.014.

Regarding STAM (UniProt Q92783), the log2 fold change was inactive: -0.066.

Consider STAG2 (UniProt Q8N3U4), for which the log2 fold change is inactive: -0.029.

Turning to STIP1 isoform 2 (UniProt P31948), the log2 fold change is inactive: -0.011.

Regarding STAT1 (UniProt P42224), the log2 fold change is inactive: 0.122.

With SPARC (UniProt P09486), the log2 fold change is inactive: -0.002.

SRPK1 (UniProt Q96SB4): the log2 fold change was inactive: 0.105.

Take SSBP1 (UniProt Q04837): the log2 fold change was inactive: 0.034.

SRP14 (UniProt P37108): the log2 fold change is inactive: 0.156.

Turning to ST7 (UniProt Q9NRC1), the log2 fold change was inactive: 0.047.

STAMBP (UniProt O95630): the log2 fold change was inactive: 0.022.

SPECC1L (UniProt Q69YQ0): the log2 fold change is inactive: -0.015.

Take SPTB isoform 2 (UniProt P11277): the log2 fold change is inactive: 0.171.

For the target SPTBN2 (UniProt O15020), the log2 fold change was inactive: 0.07.

Consider SRP54 (UniProt P61011), for which the log2 fold change is inactive: 0.05.

For the target SPC25 (UniProt Q9HBM1), the log2 fold change is inactive: -0.006.

For the target SPATA5L1 (UniProt Q9BVQ7), the log2 fold change was inactive: 0.016.

With STAG1 (UniProt Q8WVM7), the log2 fold change was inactive: -0.039.

As for SRSF9 (UniProt Q13242), the log2 fold change was inactive: 0.171.

For the origin of these results see the supplement of paper PMC10849652.
